System: Hsp90 complexes in K562 cell extract
Assay: Nano-LC-MS/MS of PU-beads pull-downs
Format: binding
Settings: for MAXIMUM matched peptides: maximum over fractions JA01-JA14; for Total fmol: protein isolated in PU-beads pull-downs, Waters Xevo QTof MS
Protocol: Protein cargo isolated from cell lysate with PU-beads or control-beads was subjected to proteomic analysis by nano liquid chromatography coupled to tandem mass spectrometry (nano LC-MS/MS). Initial protein identification was performed using the Mascot search engine, and was further evaluated using Scaffold Proteome Software (Tables 5a-d).
Lysates prepared as mentioned above were first pre-cleaned by incubation with control beads overnight at 4° C. […] Beads were washed with lysis buffer, proteins eluted by boiling in 2% SDS, separated on a denaturing gel and Coomassie stained according to manufacturer's procedure (Biorad). […] Analyses of the batch purified pools were done using a QSTAR-Elite hybrid quadrupole time-of-flight mass spectrometer (QTof MS) (AB/MDS Sciex), equipped with a nano spray ion source. Peptide mixtures (in 20 μL) are loaded onto a trapping guard column (0.3×5-mm PepMap C18 100 cartridge from LC Packings) using an Eksigent nano MDLC system (Eksigent Technologies, Inc) at a flow rate of 20 μL/min. […] Electrospray ionization (ESI) needle voltage was set at about 1800 V. The mass analyzer is operated in automatic, data-dependent MS/MS acquisition mode, with the threshold set to 10 counts per second of doubly or triply charged precursor ions selected for fragmentation scans. Survey scans of 0.25 sec are recorded from 400 to 1800 amu; up to 3 MS/MS scans are then collected sequentially for the selected precursor ions, recording from 100 to 1800 amu. The collision energy is automatically adjusted in accordance with the m/z value of the precursor ions selected for MS/MS. Selected precursor ions are excluded from repeated selection for 60 sec after the end of the corresponding fragmentation duty cycle. […] One missed tryptic cleavage site was allowed, precursor ion mass tolerance=0.4 Da fragment ion mass tolerance=0.4 Da, protein modifications were allowed for Met-oxide, Cys-acrylamide and N-terminal acetylation. MudPit scoring was typically applied with ‘require bold red’ activated, and using significance threshold score p<0.05. Unique peptide counts (or ‘spectral counts’) and percent sequence coverages for all identified proteins were exported to Scaffold Proteome Software (version 2_06_01, www.proteomesoftware.com) for further bioinformatic analysis (Table 5a). Using output from Mascot, Scaffold validates, organizes, and interprets mass spectrometry data, allowing more easily to manage large amounts of data, to compare samples, and to search for protein modifications.

B1: Serine/threonine-protein kinase D2; PRKD2 (protein, UniProt Q9BZL6 1-878, looked up)
Serine/threonine-protein …: MATAPSYPAGLPGSPGPGSPPPPGGLELQSPPPLLPQIPAPGSGVSFHIQIGLTREFVLLPAASELAHVKQLACSIVDQKFPECGFYGLYDKILLFKHDPTSANLLQLVRSSGDIQEGDLVEVVLSASATFEDFQIRPHALTVHSYRAPAFCDHCGEMLFGLVRQGLKCDGCGLNYHKRCAFSIPNNCSGARKRRLSSTSLASGHSVRLGTSESLPCTAEELSRSTTELLPRRPPSSSSSSSASSYTGRPIELDKMLLSKVKVPHTFLIHSYTRPTVCQACKKLLKGLFRQGLQCKDCKFNCHKRCATRVPNDCLGEALINGDVPMEEATDFSEADKSALMDESEDSGVIPGSHSENALHASEEEEGEGGKAQSSLGYIPLMRVVQSVRHTTRKSSTTLREGWVVHYSNKDTLRKRHYWRLDCKCITLFQNNTTNRYYKEIPLSEILTVESAQNFSLVPPGTNPHCFEIVTANATYFVGEMPGGTPGGPSGQGAEAARGWETAIRQALMPVILQDAPSAPGHAPHRQASLSISVSNSQIQENVDIATVYQIFPDEVLGSGQFGVVYGGKHRKTGRDVAVKVIDKLRFPTKQESQLRNEVAILQSLRHPGIVNLECMFETPEKVFVVMEKLHGDMLEMILSSEKGRLPERLTKFLITQILVALRHLHFKNIVHCDLKPENVLLASADPFPQVKLCDFGFARIIGEKSFRRSVVGTPAYLAPEVLLNQGYNRSLDMWSVGVIMYVSLSGTFPFNEDEDINDQIQNAAFMYPASPWSHISAGAIDLINNLLQVKMRKRYSVDKSLSHPWLQEYQTWLDLRELEGKMGERYITHESDDARWEQFAAEHPLPGSGLPTDRDLGGACPPQDHDMQGLAERISVL
Matched Peptides by Fraction JA03 (PU-beads pull-down, Run1, gel size cut 110-150): 6
Matched Peptides by Fraction JA10 (PU-beads pull-down, Run2, gel size cut 110-150): 9
MAXIMUM matched peptides (PU-beads pull-down): 9
Total fmol: 3.5358 fmol

B2: Casein kinase I isoform alpha (protein, UniProt P48729 2-337, looked up)
Casein kinase I isoform alpha: ASSSGSKAEFIVGGKYKLVRKIGSGSFGDIYLAINITNGEEVAVKLESQKARHPQLLYESKLYKILQGGVGIPHIRWYGQEKDYNVLVMDLLGPSLEDLFNFCSRRFTMKTVLMLADQMISRIEYVHTKNFIHRDIKPDNFLMGIGRHCNKLFLIDFGLAKKYRDNRTRQHIPYREDKNLTGTARYASINAHLGIEQSRRDDMESLGYVLMYFNRTSLPWQGLKAATKKQKYEKISEKKMSTPVEVLCKGFPAEFAMYLNYCRGLRFEEAPDYMYLRQLFRILFRTLNHQYDYTFDWTMLKQKAAQQAASSSGQGQQAQTPTGKQTDKTKSNMKGF
Matched Peptides by Fraction JA07 (PU-beads pull-down, Run1, gel size cut <40): 5
Matched Peptides by Fraction JA14 (PU-beads pull-down, Run2, gel size cut <40): 7
MAXIMUM matched peptides (PU-beads pull-down): 7
Total fmol: 7.8446 fmol

B3: Signal transducer and activator of transcription 5A (protein, UniProt P42229 1-794, looked up)
Signal transducer and …: MAGWIQAQQLQGDALRQMQVLYGQHFPIEVRHYLAQWIESQPWDAIDLDNPQDRAQATQLLEGLVQELQKKAEHQVGEDGFLLKIKLGHYATQLQKTYDRCPLELVRCIRHILYNEQRLVREANNCSSPAGILVDAMSQKHLQINQTFEELRLVTQDTENELKKLQQTQEYFIIQYQESLRIQAQFAQLAQLSPQERLSRETALQQKQVSLEAWLQREAQTLQQYRVELAEKHQKTLQLLRKQQTIILDDELIQWKRRQQLAGNGGPPEGSLDVLQSWCEKLAEIIWQNRQQIRRAEHLCQQLPIPGPVEEMLAEVNATITDIISALVTSTFIIEKQPPQVLKTQTKFAATVRLLVGGKLNVHMNPPQVKATIISEQQAKSLLKNENTRNECSGEILNNCCVMEYHQATGTLSAHFRNMSLKRIKRADRRGAESVTEEKFTVLFESQFSVGSNELVFQVKTLSLPVVVIVHGSQDHNATATVLWDNAFAEPGRVPFAVPDKVLWPQLCEALNMKFKAEVQSNRGLTKENLVFLAQKLFNNSSSHLEDYSGLSVSWSQFNRENLPGWNYTFWQWFDGVMEVLKKHHKPHWNDGAILGFVNKQQAHDLLINKPDGTFLLRFSDSEIGGITIAWKFDSPERNLWNLKPFTTRDFSIRSLADRLGDLSYLIYVFPDRPKDEVFSKYYTPVLAKAVDGYVKPQIKQVVPEFVNASADAGGSSATYMDQAPSPAVCPQAPYNMYPQNPDHVLDQDGEFDLDETMDVARHVEELLRRPMDSLDSRLSPPAGLFTSARGSLS
Matched Peptides by Fraction JA04 (PU-beads pull-down, Run1, gel size cut 80-110): 78
Matched Peptides by Fraction JA11 (PU-beads pull-down, Run2, gel size cut 80-110): 73
MAXIMUM matched peptides (PU-beads pull-down): 78
Total fmol: 33.6765 fmol
